Measurements from PMC11853350.
No constants are given. Whether binding was seen depends on the method and setting. In cells and extracts the contact can be indirect. Some binding calls cover weakened binding; strength is not graded here.

Chains of the proteins cited; added tags and fusions are not shown.
UniProt Q03135: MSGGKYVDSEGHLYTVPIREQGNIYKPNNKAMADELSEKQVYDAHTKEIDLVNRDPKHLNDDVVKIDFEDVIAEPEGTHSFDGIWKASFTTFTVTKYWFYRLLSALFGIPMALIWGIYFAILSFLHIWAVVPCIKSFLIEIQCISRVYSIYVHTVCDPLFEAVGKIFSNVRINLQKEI

T1: Sorting nexin 19 (SNX19) (human (endogenous in human RPTCs)) (UniProt Q92543)
T1 sequence: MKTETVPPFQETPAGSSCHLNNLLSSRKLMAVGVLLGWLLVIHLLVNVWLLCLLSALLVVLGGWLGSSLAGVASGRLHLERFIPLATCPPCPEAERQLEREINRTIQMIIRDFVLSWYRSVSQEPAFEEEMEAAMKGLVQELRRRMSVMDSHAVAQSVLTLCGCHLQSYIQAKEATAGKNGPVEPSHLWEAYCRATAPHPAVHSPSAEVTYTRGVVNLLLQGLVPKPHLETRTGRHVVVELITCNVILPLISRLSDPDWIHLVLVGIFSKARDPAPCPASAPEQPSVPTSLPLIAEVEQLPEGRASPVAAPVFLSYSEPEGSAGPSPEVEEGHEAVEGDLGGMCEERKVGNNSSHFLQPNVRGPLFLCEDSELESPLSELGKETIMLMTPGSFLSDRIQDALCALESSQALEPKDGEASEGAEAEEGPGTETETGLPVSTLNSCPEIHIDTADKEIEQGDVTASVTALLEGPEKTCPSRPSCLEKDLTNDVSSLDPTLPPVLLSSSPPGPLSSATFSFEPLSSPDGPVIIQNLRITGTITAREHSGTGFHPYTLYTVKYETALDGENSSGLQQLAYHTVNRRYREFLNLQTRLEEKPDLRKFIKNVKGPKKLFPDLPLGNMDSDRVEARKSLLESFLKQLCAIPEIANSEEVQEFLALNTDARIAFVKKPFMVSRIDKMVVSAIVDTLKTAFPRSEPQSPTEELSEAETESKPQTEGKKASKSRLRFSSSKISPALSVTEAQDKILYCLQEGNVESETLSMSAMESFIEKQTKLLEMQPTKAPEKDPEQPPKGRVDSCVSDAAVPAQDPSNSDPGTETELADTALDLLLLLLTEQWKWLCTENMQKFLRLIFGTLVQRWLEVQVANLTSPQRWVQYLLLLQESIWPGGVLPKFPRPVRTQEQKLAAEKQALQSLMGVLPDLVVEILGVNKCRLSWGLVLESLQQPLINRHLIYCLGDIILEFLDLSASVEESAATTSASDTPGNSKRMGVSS

T2: Flotillin-1 (human (endogenous in human RPTCs)) (UniProt O75955)
T2 sequence: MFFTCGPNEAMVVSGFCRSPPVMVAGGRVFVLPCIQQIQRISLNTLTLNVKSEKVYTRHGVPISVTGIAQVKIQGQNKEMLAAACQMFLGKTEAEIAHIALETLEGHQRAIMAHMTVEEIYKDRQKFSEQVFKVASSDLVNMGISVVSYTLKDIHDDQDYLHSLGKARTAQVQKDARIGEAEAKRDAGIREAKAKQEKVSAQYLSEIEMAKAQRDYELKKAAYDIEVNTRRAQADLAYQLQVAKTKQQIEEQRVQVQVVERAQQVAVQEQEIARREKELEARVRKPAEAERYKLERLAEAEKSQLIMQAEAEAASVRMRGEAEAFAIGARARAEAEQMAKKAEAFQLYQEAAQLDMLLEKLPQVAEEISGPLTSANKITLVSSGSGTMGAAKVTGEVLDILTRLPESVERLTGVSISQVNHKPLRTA

B1: Flotillin-1 (protein, UniProt O75955 1-427)
chain: T2 sequence
B2: Sorting nexin 19 (SNX19) (protein, UniProt Q92543-1 1-992)
chain: T1 sequence

Experiments:
Assay in all cases: co-IP; human RPTC lysates incubated with normal rabbit IgG, anti-SNX19, anti-caveolin-1 or anti-flotillin-1 antibodies; SDS-PAGE and immunoblotting; both orientations; cells in the basal state or treated with fenoldopam (25 nM, 30 min) and/or SCH39166 (1 µM, 30 min)
[1] = biological target: T1, Sorting nexin 19 (SNX19) (human (endogenous in human RPTCs))
[2] = biological target: Caveolin-1 (human (endogenous in human RPTCs)) (UniProt Q03135)
[3] = biological target: T2, Flotillin-1 (human (endogenous in human RPTCs))

| Molecule | binding [1] | binding [2] | binding [3] |
| --- | --- | --- | --- |
| Caveolin-1 (from UniProt Q03135 1-178) | binds |  |  |
| B1 | binds |  |  |
| B2 |  | binds | binds |
